{"source": "PubChem BioAssay AID1159593 (NIAID, 2016)", "aim": "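Canonical TLR pathway genes needed for NF-kappaB activation by LPS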", "cell system": "RAW264.7 macrophages of mouse, with reporters for p65 (GFP) and the Tnf promoter (mCherry)", "reagents": "single siRNA against mouse genes", "timing": "48 to 72 hours after siRNA transfection, then LPS for 40 min", "challenge": "LPS (Salmonella minnesota R595) for 40 min before fixation; dose not given", "read-out": "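Imaged nuclear over cytoplasmic GFP-p65 intensity after 40 min LPS, normalised per plate by median and MAD, robust z-score versus negative controls, mean of replicates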", "scale": "p65 translocation z-score: higher = more nuclear NF-kappaB p65 after LPS", "hit rule": "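Activity score grows with absolute z: 25 beyond 1, 50 beyond 1.5, 75 beyond 2, 100 beyond 2.5; active calls here sit at about z 1.5 or more either way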", "calls": "active = changed p65 translocation (either direction); inactive = no clear change", "note": "The deposit covers 756 reagents; below is a part drawn at random. In the full data, 137 (18%) got an active call. 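Active means p65 translocation went either up or down; genes were judged on the median of six siRNAs, not single siRNAs.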 The numbers tell different reagents against one gene apart. Not stated in the record: the amount of reagent."}
The first 6 entries as a preview:
{"Gene":"Chuk (conserved helix-loop-helix ubiquitous kinase)","reagent":1,"p65 translocation z-score":1.33,"Outcome":"inactive"}
{"Gene":"Chuk (conserved helix-loop-helix ubiquitous kinase)","reagent":2,"p65 translocation z-score":-0.993,"Outcome":"inactive"}
{"Gene":"Chuk (conserved helix-loop-helix ubiquitous kinase)","reagent":3,"p65 translocation z-score":0.548,"Outcome":"inactive"}
{"Gene":"Chuk (conserved helix-loop-helix ubiquitous kinase)","reagent":4,"p65 translocation z-score":3.57,"Outcome":"active"}
{"Gene":"Chuk (conserved helix-loop-helix ubiquitous kinase)","reagent":5,"p65 translocation z-score":-1.58,"Outcome":"active"}
{"Gene":"Chuk (conserved helix-loop-helix ubiquitous kinase)","reagent":6,"p65 translocation z-score":0.178,"Outcome":"inactive"}

The list itself, repeating the preview:
{"Gene":"Chuk (conserved helix-loop-helix ubiquitous kinase)","reagent":1,"p65 translocation z-score":1.33,"Outcome":"inactive"}
{"Gene":"Chuk (conserved helix-loop-helix ubiquitous kinase)","reagent":2,"p65 translocation z-score":-0.993,"Outcome":"inactive"}
{"Gene":"Chuk (conserved helix-loop-helix ubiquitous kinase)","reagent":3,"p65 translocation z-score":0.548,"Outcome":"inactive"}
{"Gene":"Chuk (conserved helix-loop-helix ubiquitous kinase)","reagent":4,"p65 translocation z-score":3.57,"Outcome":"active"}
{"Gene":"Chuk (conserved helix-loop-helix ubiquitous kinase)","reagent":5,"p65 translocation z-score":-1.58,"Outcome":"active"}
{"Gene":"Chuk (conserved helix-loop-helix ubiquitous kinase)","reagent":6,"p65 translocation z-score":0.178,"Outcome":"inactive"}
{"Gene":"Ikbkg (inhibitor of kappaB kinase gamma)","reagent":1,"p65 translocation z-score":-1.58,"Outcome":"active"}
{"Gene":"Ikbkg (inhibitor of kappaB kinase gamma)","reagent":2,"p65 translocation z-score":-0.825,"Outcome":"inactive"}
{"Gene":"Ikbkg (inhibitor of kappaB kinase gamma)","reagent":3,"p65 translocation z-score":0.249,"Outcome":"inactive"}
{"Gene":"Ikbkg (inhibitor of kappaB kinase gamma)","reagent":4,"p65 translocation z-score":-2.36,"Outcome":"active"}
{"Gene":"Ikbkg (inhibitor of kappaB kinase gamma)","reagent":5,"p65 translocation z-score":-1.34,"Outcome":"inactive"}
{"Gene":"Ikbkg (inhibitor of kappaB kinase gamma)","reagent":6,"p65 translocation z-score":1.3,"Outcome":"inactive"}
{"Gene":"Dusp2 (dual specificity phosphatase 2)","reagent":1,"p65 translocation z-score":-0.566,"Outcome":"inactive"}
{"Gene":"Dusp2 (dual specificity phosphatase 2)","reagent":2,"p65 translocation z-score":-4.92,"Outcome":"active"}
{"Gene":"Dusp2 (dual specificity phosphatase 2)","reagent":3,"p65 translocation z-score":-1.36,"Outcome":"inactive"}
{"Gene":"Dusp2 (dual specificity phosphatase 2)","reagent":4,"p65 translocation z-score":0.936,"Outcome":"inactive"}
{"Gene":"Dusp2 (dual specificity phosphatase 2)","reagent":5,"p65 translocation z-score":-1.53,"Outcome":"active"}
{"Gene":"Dusp2 (dual specificity phosphatase 2)","reagent":6,"p65 translocation z-score":0.609,"Outcome":"inactive"}
{"Gene":"Casp8 (caspase 8)","reagent":1,"p65 translocation z-score":0.864,"Outcome":"inactive"}
{"Gene":"Casp8 (caspase 8)","reagent":2,"p65 translocation z-score":-1.22,"Outcome":"inactive"}
{"Gene":"Casp8 (caspase 8)","reagent":3,"p65 translocation z-score":-0.908,"Outcome":"inactive"}
{"Gene":"Casp8 (caspase 8)","reagent":4,"p65 translocation z-score":0.32,"Outcome":"inactive"}
{"Gene":"Casp8 (caspase 8)","reagent":5,"p65 translocation z-score":-3.43,"Outcome":"active"}
{"Gene":"Casp8 (caspase 8)","reagent":6,"p65 translocation z-score":-0.774,"Outcome":"inactive"}
{"Gene":"Arf6 (ARF GTPase 6)","reagent":1,"p65 translocation z-score":-0.455,"Outcome":"inactive"}
{"Gene":"Arf6 (ARF GTPase 6)","reagent":2,"p65 translocation z-score":-0.324,"Outcome":"inactive"}
{"Gene":"Arf6 (ARF GTPase 6)","reagent":3,"p65 translocation z-score":-0.714,"Outcome":"inactive"}
{"Gene":"Arf6 (ARF GTPase 6)","reagent":4,"p65 translocation z-score":-0.262,"Outcome":"inactive"}
{"Gene":"Arf6 (ARF GTPase 6)","reagent":5,"p65 translocation z-score":-0.222,"Outcome":"inactive"}
{"Gene":"Arf6 (ARF GTPase 6)","reagent":6,"p65 translocation z-score":-0.918,"Outcome":"inactive"}
{"Gene":"Fadd (Fas associated via death domain)","reagent":1,"p65 translocation z-score":-0.156,"Outcome":"inactive"}
{"Gene":"Fadd (Fas associated via death domain)","reagent":2,"p65 translocation z-score":-1.27,"Outcome":"inactive"}
{"Gene":"Fadd (Fas associated via death domain)","reagent":3,"p65 translocation z-score":-1.36,"Outcome":"inactive"}
{"Gene":"Fadd (Fas associated via death domain)","reagent":4,"p65 translocation z-score":-0.827,"Outcome":"inactive"}
{"Gene":"Fadd (Fas associated via death domain)","reagent":5,"p65 translocation z-score":-0.409,"Outcome":"inactive"}
{"Gene":"Fadd (Fas associated via death domain)","reagent":6,"p65 translocation z-score":-0.0912,"Outcome":"inactive"}
{"Gene":"Cxcl11 (chemokine (C-X-C motif) ligand 11)","reagent":1,"p65 translocation z-score":-0.439,"Outcome":"inactive"}
{"Gene":"Cxcl11 (chemokine (C-X-C motif) ligand 11)","reagent":2,"p65 translocation z-score":0.688,"Outcome":"inactive"}
{"Gene":"Cxcl11 (chemokine (C-X-C motif) ligand 11)","reagent":3,"p65 translocation z-score":-0.00587,"Outcome":"inactive"}
{"Gene":"Cxcl11 (chemokine (C-X-C motif) ligand 11)","reagent":4,"p65 translocation z-score":-1.58,"Outcome":"active"}
{"Gene":"Cxcl11 (chemokine (C-X-C motif) ligand 11)","reagent":5,"p65 translocation z-score":-1.08,"Outcome":"inactive"}
{"Gene":"Cxcl11 (chemokine (C-X-C motif) ligand 11)","reagent":6,"p65 translocation z-score":-0.213,"Outcome":"inactive"}
{"Gene":"Elk1 (ETS transcription factor ELK1)","reagent":1,"p65 translocation z-score":-0.614,"Outcome":"inactive"}
{"Gene":"Elk1 (ETS transcription factor ELK1)","reagent":2,"p65 translocation z-score":-0.54,"Outcome":"inactive"}
{"Gene":"Elk1 (ETS transcription factor ELK1)","reagent":3,"p65 translocation z-score":-1.25,"Outcome":"inactive"}
{"Gene":"Elk1 (ETS transcription factor ELK1)","reagent":4,"p65 translocation z-score":-1.23,"Outcome":"inactive"}
{"Gene":"Elk1 (ETS transcription factor ELK1)","reagent":5,"p65 translocation z-score":0.177,"Outcome":"inactive"}
{"Gene":"Elk1 (ETS transcription factor ELK1)","reagent":6,"p65 translocation z-score":-2.03,"Outcome":"active"}
{"Gene":"Ccl3 (C-C motif chemokine ligand 3)","reagent":1,"p65 translocation z-score":-1.83,"Outcome":"active"}
{"Gene":"Ccl3 (C-C motif chemokine ligand 3)","reagent":2,"p65 translocation z-score":-0.214,"Outcome":"inactive"}
{"Gene":"Ccl3 (C-C motif chemokine ligand 3)","reagent":3,"p65 translocation z-score":-0.653,"Outcome":"inactive"}
{"Gene":"Ccl3 (C-C motif chemokine ligand 3)","reagent":4,"p65 translocation z-score":0.107,"Outcome":"inactive"}
{"Gene":"Ccl3 (C-C motif chemokine ligand 3)","reagent":5,"p65 translocation z-score":-0.323,"Outcome":"inactive"}
{"Gene":"Ccl3 (C-C motif chemokine ligand 3)","reagent":6,"p65 translocation z-score":4.74,"Outcome":"active"}
{"Gene":"Pik3r3 (phosphoinositide-3-kinase regulatory subunit 3)","reagent":1,"p65 translocation z-score":0.381,"Outcome":"inactive"}
{"Gene":"Pik3r3 (phosphoinositide-3-kinase regulatory subunit 3)","reagent":2,"p65 translocation z-score":0.225,"Outcome":"inactive"}
{"Gene":"Pik3r3 (phosphoinositide-3-kinase regulatory subunit 3)","reagent":3,"p65 translocation z-score":1.55,"Outcome":"active"}
{"Gene":"Pik3r3 (phosphoinositide-3-kinase regulatory subunit 3)","reagent":4,"p65 translocation z-score":-1.62,"Outcome":"active"}
{"Gene":"Pik3r3 (phosphoinositide-3-kinase regulatory subunit 3)","reagent":5,"p65 translocation z-score":0.139,"Outcome":"inactive"}
{"Gene":"Pik3r3 (phosphoinositide-3-kinase regulatory subunit 3)","reagent":6,"p65 translocation z-score":0.886,"Outcome":"inactive"}
